This is an account of results in PMC11005415.

This assay has as its target T1, Cactin-V5 (Drosophila melanogaster) (UniProt Q9VR99).
T1 sequence: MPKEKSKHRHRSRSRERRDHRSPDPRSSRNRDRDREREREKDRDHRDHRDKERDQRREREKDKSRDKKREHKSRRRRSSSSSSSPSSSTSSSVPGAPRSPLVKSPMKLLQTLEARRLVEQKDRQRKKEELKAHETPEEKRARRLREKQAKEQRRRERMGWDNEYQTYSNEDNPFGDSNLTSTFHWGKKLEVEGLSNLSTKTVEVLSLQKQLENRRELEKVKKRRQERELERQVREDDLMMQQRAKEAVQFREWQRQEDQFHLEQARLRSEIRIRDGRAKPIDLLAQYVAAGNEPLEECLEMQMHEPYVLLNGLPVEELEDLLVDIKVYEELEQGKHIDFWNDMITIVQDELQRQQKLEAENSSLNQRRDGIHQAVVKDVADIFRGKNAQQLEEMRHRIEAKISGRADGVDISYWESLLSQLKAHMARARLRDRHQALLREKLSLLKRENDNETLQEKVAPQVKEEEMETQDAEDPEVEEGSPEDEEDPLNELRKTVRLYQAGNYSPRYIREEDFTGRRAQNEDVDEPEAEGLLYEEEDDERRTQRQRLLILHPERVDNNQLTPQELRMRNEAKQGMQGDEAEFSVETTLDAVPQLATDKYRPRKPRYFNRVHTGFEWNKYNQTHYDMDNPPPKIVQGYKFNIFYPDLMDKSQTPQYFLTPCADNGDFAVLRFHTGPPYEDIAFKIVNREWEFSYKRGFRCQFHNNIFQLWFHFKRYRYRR
In words: co-IP; S2 cells co-transfected with Cactin-V5 and PGK-Flag, uninfected or infected with DCV (MOI = 1, 48 h); lysis buffer 2 mM EDTA, 50 mM Tris-HCl pH 7.4, 150 mM NaCl, 1% NP-40, 20% glycerol; anti-V5 antibody with Protein A/G Agarose, 4°C; blots with anti-V5 and anti-Flag.

No constants are given. Whether binding was seen depends on the method and setting. In cells and extracts the contact can be indirect. Some binding calls cover weakened binding; strength is not graded here. Where a sequence is shown, tags or fusion partners need not be part of it.

B1: PGK-Flag (enzyme, UniProt Q01604 1-415)
chain: MAFNKLSIENLDLAGKRVLMRVDFNVPIKEGKITSNQRIVAALDSIKLALSKKAKSVVLMSHLGRPDGNKNIKYTLAPVAAELKTLLGQDVIFLSDCVGSEVEAACKDPAPGSVILLENVRFYVEEEGKGLDASGGKVKADPAKVKEFRASLAKLGDVYVNDAFGTAHRAHSSMMGDGFEQRAAGLLLNKELKYFSQALDKPPNPFLAILGGAKVADKIQLIENLLDKVNEMIIGGGMAFTFLKVLNNMKIGGSLFDEEGSKIVEKLVEKAKKNNVQLHLPVDFVCGDKFAENAAVSEATVEAGIPDGHMGLDVGPKTRELFAAPIARAKLIVWNGPPGVFEFPNFANGTKSIMDGVVAATKNGTVSIIGGGDTASCCAKWNTEALVSHVSTGGGASLELLEGKTLPGVAALTSA
Take B1: the binding result is “binds”.
